Results from one PubChem assay

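Vaccinia-infected cells with a two-color viral stage reporter; Venus fluorescence read on a plate reader; the cell line is not named here; timing not stated here. The test concentration is not given here. Percent change in Venus reporter signal; lower (more negative) values mean stronger inhibition of that viral stage.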

Values are in %. How 0% and 100% were set is not given here. Common to all entries: measured here: Venus reporter, other viral stage. Part of the compounds only, not a random draw; the main read-out is not listed here.

| # | compound | activity change (Venus) (%) |
|---|---|---|
| 1 | `CCCNC(=O)N1[C@H](CO)[C@@H](c2ccccc2-c2ccc(OC)cc2)[C@@H]1C#N` | -24.89 |
| 2 | `COc1ccc(S(=O)(=O)N(C)C[C@@H]2Oc3c(NC(=O)Nc4ccc(C(F)(F)F)cc4)cccc3C(=O)N([C@H](C)CO)C[C@@H]2C)cc1` | -39.93 |
| 3 | `Cc1cccc(-c2ccc([C@@H]3[C@H](CO)N4CCCCN(CCC(F)(F)F)C[C@@H]34)cc2)c1` | -47.46 |
| 4 | `N#Cc1ccc(-c2ccc(C3[C@@H]4CN(C(=O)c5cccnc5)C[C@H]3N4)cc2)cc1` (some centres unmarked) | -53.71 |
| 5 | `COc1ccc(NC(=O)N(C)C[C@H]2OCCCC[C@@H](C)Oc3ccc(NS(=O)(=O)c4ccc(C)cc4)cc3C(=O)N([C@@H](C)CO)C[C@@H]2C)cc1` | -23.91 |
| 6 | `COc1ccc(S(=O)(=O)N(C)C[C@H]2OCCCC[C@@H](C)Oc3ccc(NS(=O)(=O)c4cn(C)cn4)cc3C(=O)N([C@@H](C)CO)C[C@H]2C)cc1` | -42.19 |
| 7 | `C[C@@H]1CN([C@@H](C)CO)S(=O)(=O)c2ccc(/C=C/c3ccccc3)cc2O[C@@H]1CN(C)C(=O)Nc1ccc(F)cc1` | -48.66 |
| 8 | `COc1ccc(S(=O)(=O)Nc2ccc3c(c2)C(=O)N([C@@H](C)CO)C[C@H](C)[C@@H](CN(C)C(=O)C2CCCCC2)OCCCC[C@H](C)O3)cc1` | -63.02 |
| 9 | `COc1ccc(S(=O)(=O)Nc2ccc3c(c2)C(=O)N([C@@H](C)CO)C[C@H](C)[C@@H](CN(C)Cc2ccc(C(F)(F)F)cc2)OCCCC[C@H](C)O3)cc1` | -75.56 |
| 10 | `Cc1cccc(CN(C)C[C@@H]2Oc3ncc(/C=C/c4ccccc4)cc3C(=O)N([C@H](C)CO)C[C@@H]2C)c1` | -53.14 |
| 11 | `O=C(C[C@@H]1CC[C@H]2[C@@H](COC[C@H](O)CN2S(=O)(=O)c2cccc(F)c2)O1)Nc1ccc(-c2ccccc2)cc1` | -42.18 |
| 12 | `O=C(C[C@H]1CC[C@@H](NC(=O)Nc2cc(F)ccc2F)[C@H](CO)O1)Nc1ccc(-c2ccccc2)cc1` | -42.86 |
| 13 | `C[C@@H]1CN([C@H](C)CO)S(=O)(=O)c2ccc(C#CCC3CCCC3)cc2O[C@@H]1CN(C)C` | -71.15 |
| 14 | `O=C1CN(Cc2ccccc2)C[C@@H]2[C@@H](c3ccc(Br)cc3)[C@@H](CO)N12` | -44.65 |
| 15 | `C[C@@H]1CN([C@H](C)CO)C(=O)c2cc(NC(=O)CCCN(C)C)ccc2O[C@@H](C)CCCCO[C@H]1CN(C)Cc1ccc(C(F)(F)F)cc1` | -66.32 |
| 16 | `C[C@@H]1CN([C@H](C)CO)S(=O)(=O)c2ccc(C#Cc3ccc(F)cc3)cc2O[C@@H]1CN(C)C` | -59.49 |
| 17 | `C[C@@H]1CN([C@@H](C)CO)C(=O)c2cccc(NC(=O)Nc3ccc(F)cc3)c2O[C@@H]1CN(C)S(=O)(=O)c1ccc(F)cc1` | -37.9 |
| 18 | `O=S(=O)(c1ccccc1)N1CC[C@@H]2[C@@H](CO)Nc3ccc(-c4ccccc4F)cc3[C@@H]21` | -20.12 |
| 19 | `C[C@@H]1CN([C@@H](C)CO)C(=O)c2cc(NC(=O)CCC(F)(F)F)ccc2O[C@@H]1CN(C)Cc1ccc(Oc2ccccc2)cc1` | -28.66 |
| 20 | `Cc1ccccc1-c1ccc([C@H]2[C@@H](CO)N3CCCCN(C(=O)Nc4cccc(F)c4)C[C@H]23)cc1` | -92.64 |
| 21 | `C[C@@H]1CCCCO[C@H](CN(C)Cc2ccc(C(F)(F)F)cc2)[C@@H](C)CN([C@@H](C)CO)C(=O)c2cc(NC(=O)c3ccncc3)ccc2O1` | -67.07 |
| 22 | `N#Cc1cccc(-c2ccc(C3[C@H]4CNC[C@@H]3N4Cc3cc(F)ccc3F)cc2)c1` (some centres unmarked) | -37.27 |
| 23 | `C[C@H](CO)N1C[C@H](C)[C@H](CN(C)C(=O)Nc2cccc3ccccc23)Oc2ncc(C#Cc3ccc(F)cc3)cc2C1=O` | -46.64 |
| 24 | `O=S(=O)(c1ccccc1)N1C[C@@H]2N[C@H](C1)C2c1ccc(/C=C/c2ccccc2)cc1` (some centres unmarked) | -53.29 |
| 25 | `COc1cccc(-c2ccc3c(c2)O[C@@H](CN(C)C(=O)C2CCCCC2)[C@@H](C)CN([C@H](C)CO)S3(=O)=O)c1` | -67.94 |
| 26 | `CN1c2ccc(-c3ccc(C#N)cc3)cc2[C@@H]2[C@@H](CCN2C(=O)NC2CCCCC2)[C@@H]1CO` | -58.57 |
| 27 | `COc1cccc(NC(=O)N(C)C[C@@H]2OCc3ccccc3-c3c(n(C)c4ccccc34)C(=O)N([C@H](C)CO)C[C@H]2C)c1` | -32.32 |
| 28 | `COc1ccc(CN(C)C[C@@H]2OCCCC[C@H](C)Oc3ccc(NC(=O)NC4CCCCC4)cc3C(=O)N([C@@H](C)CO)C[C@H]2C)cc1` | -48.62 |

Repeated from the top, 3 entries:

For CCCNC(=O)N1[C@H](CO)[C@@H](c2ccccc2-c2ccc(OC)cc2)[C@@H]1C#N the result was activity change (Venus) -24.89%.
For COc1ccc(S(=O)(=O)N(C)C[C@@H]2Oc3c(NC(=O)Nc4ccc(C(F)(F)F)cc4)cccc3C(=O)N([C@H](C)CO)C[C@@H]2C)cc1 the result was activity change (Venus) -39.93%.
For Cc1cccc(-c2ccc([C@@H]3[C@H](CO)N4CCCCN(CCC(F)(F)F)C[C@@H]34)cc2)c1 the result was activity change (Venus) -47.46%.

Data taken from PubChem BioAssay AID1053133, deposited by Broad Institute (2014).